Source: patent publication US20080199473A1 (CLEVELAND CLINIC FOUNDATION, published 2008)
Results are given in words; binding and its absence hold for the method and conditions named.

Target: GST alone
Test: GST pull-down, 35S-labelled in-vitro-translated VG5Q

- binding: no binding
B1: human VG5Q protein (protein)
chain: MASEAPSPPRSPPPPTSPEPELAQLRRKVEKLERELRSCKRQVREIEKLLHHTERLYQNAESNNQELRTQVEELSKILQRGRNEDNKKSDVEVQTENHAPWSISDYFYQTYYNDVSLPNKVTELSDQQDQAIETSILNSKDHLQVENDAYPGTDRTENVKYRQVDHFASNSQEPASALATEDTSLEGSSLAESLRAAAEAAVSQTGFSYDENTGLYFDHSTGFYYDSENQLYYDPSTGIYYYCDVESGRYQFHSRVDLQPYPTSSTKQSKDKKLKKKRKDPDSSATNEEKDLNSEDQKAFSVEHTSCNEEENFANMKKKAKIGIHHKNSPPKVTVPTSGNTIESPLHENISNSTSFKDEKIMETDSEPEEGEITDSQTEDSYDEAITSEGNVTAEDSEDEDEDKIWPPCIRVIVIRSPVLQIGSLFIITAVNPATIGREKDMEHTLRIPEVGVSKFHAEIYFDHDLQSYVLVDQGSQNGTIVNGKQILQPKTKCDPYVLEHGDEVKIGETVLSFHIHPGSDTCDGCEPGQVRAHLRLDKKDESFVGPTLSKEEKELERRKELKKIRVKYGLQNTEYEDEKTLKNPKYKDRAGKRREQVGSEGTFQRDDAPASVHSEITDSNKGRKMLEKMGWKKGEGLGKDGGGMKTPIQLQLRRTHAGLGTGKPSSFEDVHLLQNKNKKNWDKARERFTENFPETKPQKDDPGTMPWVKGTLE
modifications: 35S label in the GST pull-down (in-vitro-translated)
